In the supplement of paper PMC10849652:
The other results are listed elsewhere or left out.

Sequences of proteins named here, by UniProt entry; tags and fusion partners are left off. A change or cut given only in a name is not applied to a line headed by its entry.
UniProt Q9UKN8: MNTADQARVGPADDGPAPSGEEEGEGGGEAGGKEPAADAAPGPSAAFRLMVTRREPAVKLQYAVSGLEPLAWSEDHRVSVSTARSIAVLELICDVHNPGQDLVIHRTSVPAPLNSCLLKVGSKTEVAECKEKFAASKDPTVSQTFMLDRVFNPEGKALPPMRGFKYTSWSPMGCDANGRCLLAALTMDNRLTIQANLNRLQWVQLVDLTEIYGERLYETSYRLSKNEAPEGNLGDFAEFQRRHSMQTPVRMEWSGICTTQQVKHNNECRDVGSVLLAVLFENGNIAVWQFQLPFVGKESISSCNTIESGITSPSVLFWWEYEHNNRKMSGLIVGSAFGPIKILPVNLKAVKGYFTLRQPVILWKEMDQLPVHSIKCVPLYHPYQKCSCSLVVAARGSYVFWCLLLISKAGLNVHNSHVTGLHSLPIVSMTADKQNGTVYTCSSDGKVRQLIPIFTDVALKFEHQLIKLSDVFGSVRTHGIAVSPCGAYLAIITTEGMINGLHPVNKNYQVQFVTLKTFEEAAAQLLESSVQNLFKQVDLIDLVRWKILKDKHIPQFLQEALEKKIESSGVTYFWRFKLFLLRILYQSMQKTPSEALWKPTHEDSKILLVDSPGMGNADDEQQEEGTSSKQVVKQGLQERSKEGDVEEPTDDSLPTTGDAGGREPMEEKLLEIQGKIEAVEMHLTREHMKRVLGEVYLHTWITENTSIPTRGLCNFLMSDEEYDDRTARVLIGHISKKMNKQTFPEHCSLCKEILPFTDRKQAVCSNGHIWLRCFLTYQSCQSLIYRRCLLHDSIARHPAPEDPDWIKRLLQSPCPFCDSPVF
UniProt P55084: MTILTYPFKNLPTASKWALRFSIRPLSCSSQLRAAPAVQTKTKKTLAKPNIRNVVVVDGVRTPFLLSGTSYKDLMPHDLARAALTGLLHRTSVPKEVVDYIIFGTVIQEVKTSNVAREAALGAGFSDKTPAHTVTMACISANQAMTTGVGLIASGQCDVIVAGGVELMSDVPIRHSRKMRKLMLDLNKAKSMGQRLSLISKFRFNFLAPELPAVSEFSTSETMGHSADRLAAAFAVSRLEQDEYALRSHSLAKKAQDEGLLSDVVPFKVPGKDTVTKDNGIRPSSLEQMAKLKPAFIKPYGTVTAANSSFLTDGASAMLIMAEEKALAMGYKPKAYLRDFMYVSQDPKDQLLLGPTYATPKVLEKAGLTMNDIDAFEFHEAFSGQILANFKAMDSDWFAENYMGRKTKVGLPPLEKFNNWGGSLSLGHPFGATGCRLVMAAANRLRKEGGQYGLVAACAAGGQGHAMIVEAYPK
UniProt P14317: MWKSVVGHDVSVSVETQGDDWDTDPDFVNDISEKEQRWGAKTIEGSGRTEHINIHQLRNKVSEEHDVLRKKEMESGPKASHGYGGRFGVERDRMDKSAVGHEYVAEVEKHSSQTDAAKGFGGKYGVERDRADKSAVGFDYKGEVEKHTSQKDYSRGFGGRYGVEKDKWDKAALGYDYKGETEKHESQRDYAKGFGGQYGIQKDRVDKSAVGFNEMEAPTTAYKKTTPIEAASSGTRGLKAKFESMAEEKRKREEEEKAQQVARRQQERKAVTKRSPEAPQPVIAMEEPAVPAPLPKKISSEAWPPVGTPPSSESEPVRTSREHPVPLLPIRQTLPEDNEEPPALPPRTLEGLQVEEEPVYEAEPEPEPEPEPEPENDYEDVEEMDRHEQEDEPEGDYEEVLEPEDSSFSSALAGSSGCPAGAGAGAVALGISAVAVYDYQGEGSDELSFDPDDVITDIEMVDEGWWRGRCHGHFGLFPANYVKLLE
UniProt P46976: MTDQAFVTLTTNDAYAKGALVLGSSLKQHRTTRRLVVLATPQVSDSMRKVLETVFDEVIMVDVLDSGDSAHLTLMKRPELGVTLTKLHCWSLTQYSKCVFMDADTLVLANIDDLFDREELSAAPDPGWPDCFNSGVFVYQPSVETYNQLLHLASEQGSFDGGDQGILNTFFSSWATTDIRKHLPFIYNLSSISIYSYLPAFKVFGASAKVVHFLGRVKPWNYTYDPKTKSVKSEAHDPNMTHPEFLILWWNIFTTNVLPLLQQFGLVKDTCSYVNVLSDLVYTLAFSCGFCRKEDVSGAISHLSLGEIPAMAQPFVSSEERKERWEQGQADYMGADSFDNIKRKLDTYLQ
UniProt P02724: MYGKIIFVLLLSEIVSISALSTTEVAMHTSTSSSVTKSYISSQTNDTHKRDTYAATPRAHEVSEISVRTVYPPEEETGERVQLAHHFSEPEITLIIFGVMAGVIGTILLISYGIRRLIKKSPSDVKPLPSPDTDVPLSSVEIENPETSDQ
UniProt Q8NEC7: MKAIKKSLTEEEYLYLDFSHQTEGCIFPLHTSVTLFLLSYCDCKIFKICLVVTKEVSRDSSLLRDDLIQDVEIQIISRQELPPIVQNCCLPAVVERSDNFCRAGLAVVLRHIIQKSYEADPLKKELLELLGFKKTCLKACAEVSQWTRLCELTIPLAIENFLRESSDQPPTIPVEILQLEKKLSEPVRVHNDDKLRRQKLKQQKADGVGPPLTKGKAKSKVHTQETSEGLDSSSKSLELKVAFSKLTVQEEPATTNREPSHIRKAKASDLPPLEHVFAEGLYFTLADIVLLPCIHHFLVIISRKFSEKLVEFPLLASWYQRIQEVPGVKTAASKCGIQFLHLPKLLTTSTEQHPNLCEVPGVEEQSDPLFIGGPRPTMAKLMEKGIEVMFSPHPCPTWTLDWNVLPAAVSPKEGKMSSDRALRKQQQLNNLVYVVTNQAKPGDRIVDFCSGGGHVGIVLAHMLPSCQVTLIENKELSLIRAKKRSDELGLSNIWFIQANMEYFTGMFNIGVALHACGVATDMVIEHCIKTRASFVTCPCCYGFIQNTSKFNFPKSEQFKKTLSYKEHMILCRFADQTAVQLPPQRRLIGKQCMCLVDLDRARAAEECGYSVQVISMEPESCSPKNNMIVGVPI
UniProt Q9UBP9: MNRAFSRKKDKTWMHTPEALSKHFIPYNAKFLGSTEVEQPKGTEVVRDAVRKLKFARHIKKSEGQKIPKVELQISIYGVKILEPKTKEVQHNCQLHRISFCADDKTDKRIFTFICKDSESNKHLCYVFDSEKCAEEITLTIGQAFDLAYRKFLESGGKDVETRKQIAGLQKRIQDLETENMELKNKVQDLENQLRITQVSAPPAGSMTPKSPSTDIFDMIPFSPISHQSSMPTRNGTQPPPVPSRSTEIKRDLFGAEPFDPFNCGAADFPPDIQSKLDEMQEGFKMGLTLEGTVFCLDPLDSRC
UniProt Q86XA9: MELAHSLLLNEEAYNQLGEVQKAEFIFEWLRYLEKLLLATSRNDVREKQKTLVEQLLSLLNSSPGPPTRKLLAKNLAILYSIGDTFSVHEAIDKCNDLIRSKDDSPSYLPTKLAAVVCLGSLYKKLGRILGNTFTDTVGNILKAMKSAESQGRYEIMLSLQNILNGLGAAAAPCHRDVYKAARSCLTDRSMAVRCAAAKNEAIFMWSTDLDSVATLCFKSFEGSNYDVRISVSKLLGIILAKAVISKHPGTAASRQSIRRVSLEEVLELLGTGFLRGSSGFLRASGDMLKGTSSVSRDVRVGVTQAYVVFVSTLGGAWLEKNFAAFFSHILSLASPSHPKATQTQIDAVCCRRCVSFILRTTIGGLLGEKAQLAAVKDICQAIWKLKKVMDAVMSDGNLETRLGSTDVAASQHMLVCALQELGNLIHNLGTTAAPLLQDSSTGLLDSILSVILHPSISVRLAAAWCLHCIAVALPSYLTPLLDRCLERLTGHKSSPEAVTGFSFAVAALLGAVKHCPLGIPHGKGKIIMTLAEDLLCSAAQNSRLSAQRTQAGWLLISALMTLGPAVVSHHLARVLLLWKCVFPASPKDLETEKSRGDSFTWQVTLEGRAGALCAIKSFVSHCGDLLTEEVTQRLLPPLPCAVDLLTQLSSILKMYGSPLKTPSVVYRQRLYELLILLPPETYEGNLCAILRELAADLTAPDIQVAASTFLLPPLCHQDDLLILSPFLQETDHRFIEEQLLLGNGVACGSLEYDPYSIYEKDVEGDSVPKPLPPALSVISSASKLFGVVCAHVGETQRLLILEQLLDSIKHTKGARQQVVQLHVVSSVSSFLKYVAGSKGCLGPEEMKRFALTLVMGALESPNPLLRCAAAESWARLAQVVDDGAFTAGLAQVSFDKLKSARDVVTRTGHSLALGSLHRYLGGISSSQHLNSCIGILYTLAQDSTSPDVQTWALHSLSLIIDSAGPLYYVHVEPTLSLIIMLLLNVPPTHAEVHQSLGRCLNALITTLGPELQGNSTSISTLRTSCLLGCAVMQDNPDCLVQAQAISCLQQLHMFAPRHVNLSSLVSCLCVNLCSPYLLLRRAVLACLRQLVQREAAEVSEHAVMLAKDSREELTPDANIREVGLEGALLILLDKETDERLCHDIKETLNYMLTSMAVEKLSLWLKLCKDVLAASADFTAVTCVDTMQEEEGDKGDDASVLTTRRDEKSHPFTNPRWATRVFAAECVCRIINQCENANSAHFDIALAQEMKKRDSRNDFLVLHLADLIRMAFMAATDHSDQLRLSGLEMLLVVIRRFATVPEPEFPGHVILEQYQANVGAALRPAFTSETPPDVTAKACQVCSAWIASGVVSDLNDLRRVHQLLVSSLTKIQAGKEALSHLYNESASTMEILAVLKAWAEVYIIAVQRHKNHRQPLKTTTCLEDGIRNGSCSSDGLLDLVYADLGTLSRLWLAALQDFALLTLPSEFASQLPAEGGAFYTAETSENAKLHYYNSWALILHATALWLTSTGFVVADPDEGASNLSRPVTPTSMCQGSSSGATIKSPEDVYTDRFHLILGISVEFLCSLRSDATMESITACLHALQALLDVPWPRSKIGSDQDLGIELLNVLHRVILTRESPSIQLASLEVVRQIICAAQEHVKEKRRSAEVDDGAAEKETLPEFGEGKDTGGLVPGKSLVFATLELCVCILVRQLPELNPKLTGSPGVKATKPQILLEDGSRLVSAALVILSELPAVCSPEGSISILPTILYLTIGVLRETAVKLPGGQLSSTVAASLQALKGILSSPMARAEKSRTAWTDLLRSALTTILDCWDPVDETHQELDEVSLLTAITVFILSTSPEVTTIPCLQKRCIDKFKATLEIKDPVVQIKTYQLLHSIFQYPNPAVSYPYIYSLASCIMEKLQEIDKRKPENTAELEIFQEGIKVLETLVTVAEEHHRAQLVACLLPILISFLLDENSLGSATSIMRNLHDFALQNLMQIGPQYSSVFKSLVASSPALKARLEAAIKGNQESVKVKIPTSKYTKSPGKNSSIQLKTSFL
UniProt Q9P035: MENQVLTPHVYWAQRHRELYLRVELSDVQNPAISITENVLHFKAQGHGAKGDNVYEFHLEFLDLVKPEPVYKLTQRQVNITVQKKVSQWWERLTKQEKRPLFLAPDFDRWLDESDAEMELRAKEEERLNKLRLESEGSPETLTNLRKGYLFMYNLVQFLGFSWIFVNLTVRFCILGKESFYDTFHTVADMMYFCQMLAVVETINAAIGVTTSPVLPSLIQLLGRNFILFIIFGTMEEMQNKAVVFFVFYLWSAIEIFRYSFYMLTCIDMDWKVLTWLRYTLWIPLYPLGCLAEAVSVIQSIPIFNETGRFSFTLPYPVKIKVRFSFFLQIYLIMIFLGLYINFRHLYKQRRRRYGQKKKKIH
UniProt P53701: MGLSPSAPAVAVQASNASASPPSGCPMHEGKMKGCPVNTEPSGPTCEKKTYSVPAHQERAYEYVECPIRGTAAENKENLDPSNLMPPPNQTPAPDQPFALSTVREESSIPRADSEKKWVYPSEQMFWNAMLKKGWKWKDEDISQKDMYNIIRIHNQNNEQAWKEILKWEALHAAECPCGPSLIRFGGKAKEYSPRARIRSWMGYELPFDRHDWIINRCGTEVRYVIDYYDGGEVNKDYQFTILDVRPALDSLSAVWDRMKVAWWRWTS
UniProt Q99871: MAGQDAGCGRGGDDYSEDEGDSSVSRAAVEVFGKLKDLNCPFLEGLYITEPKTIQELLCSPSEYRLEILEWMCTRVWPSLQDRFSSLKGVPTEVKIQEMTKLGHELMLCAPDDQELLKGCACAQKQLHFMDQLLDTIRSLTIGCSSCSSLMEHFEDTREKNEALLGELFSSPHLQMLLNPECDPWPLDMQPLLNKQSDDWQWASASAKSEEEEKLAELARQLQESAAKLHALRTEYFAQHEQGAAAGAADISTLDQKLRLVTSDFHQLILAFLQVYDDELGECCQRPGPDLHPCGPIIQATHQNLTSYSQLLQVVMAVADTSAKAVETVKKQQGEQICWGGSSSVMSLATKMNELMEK
UniProt P69905, whole entry, looked up: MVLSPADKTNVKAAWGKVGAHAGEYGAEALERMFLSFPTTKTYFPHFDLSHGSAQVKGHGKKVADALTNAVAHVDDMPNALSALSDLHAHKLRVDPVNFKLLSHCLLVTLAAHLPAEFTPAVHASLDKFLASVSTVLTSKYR
UniProt P69891: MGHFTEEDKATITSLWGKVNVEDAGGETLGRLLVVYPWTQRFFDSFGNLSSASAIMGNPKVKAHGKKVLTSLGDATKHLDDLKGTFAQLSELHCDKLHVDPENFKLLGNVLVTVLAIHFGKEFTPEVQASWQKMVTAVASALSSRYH

Legend:
Experiment in all cases: log2 fold change, soluble protein after heating vs DMSO (PISA); higher = thermal stabilisation; K562 lysate, 10 uM; active = over 0.2 and 3.5 SD of the protein, either way, in both replicates (recomputed)
[1] = compound: C1=CC=C(C=C1)[C@H](COC2=CC3=C(C=C2)NC(=O)N3)NC(=O)C4=CC=CN(C4=O)CC5=CC(=C(C=C5)F)F
Summary of the method: (§1)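 Values give the log-two fold change in thermal stability against solvent controls, from duplicates. Crude K562 extract at 1 mg/mL protein, made by dounce homogenisation in PBS pH 7.4 with 1 mM MgCl2, was treated with 10 μM compound for 30 min. After 3 min heating across 48°C-58°C, aliquots were pooled, adjusted to 0.5% NP-40 at 4°C and centrifuged at 21,000xg for 90 min. The supernatant was measured by TMTpro 16plex LC-MS/MS with channel sums equalised.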

[2] = compound: CC1=C(SC2=C1C(=N[C@H](C3=NN=C(N32)C)CC(=O)N)C4=CC=C(C=C4)Cl)C
Summary of the method: as §1

[3] = compound: CC1=C2C(=CC=C1)N=C(N(C2=O)C3=CC=CC=C3C)CN4C=NC5=C(N=CN=C54)N
Summary of the method: as §1

[4] = compound: Cc1sc2c(c1C)C(c1ccc(Cl)cc1)=N[C@@H](CC(=O)OC(C)(C)C)c1nnc(C)n1-2
Summary of the method: as §1

[5] = compound: c1ccc([C@@H]2C[C@H]2NC2CCNCC2)cc1
Summary of the method: as §1

Target	log2 fold change [1]	log2 fold change [2]	log2 fold change [3]	log2 fold change [4]	log2 fold change [5]
GRK2 (UniProt P25098)	inactive: -0.05	inactive: 0.009	inactive: 0.03	inactive: 0.007	inactive: -0.008
GRB10 (UniProt Q13322)	inactive: 0.03	inactive: 0.022	inactive: 0.024	inactive: 0.045	inactive: -0.078
GRHPR (UniProt Q9UBQ7)	inactive: -0.002	inactive: 0.03	inactive: 0.018	inactive: -0.016	inactive: 0.121
GTF3C4 (UniProt Q9UKN8)	inactive: 0.023	inactive: -0.057	inactive: 0.025	inactive: -0.032	inactive: -0.003
GXYLT1 (UniProt Q4G148)	inactive: 0.142	inactive: -0.034	inactive: 0.029	inactive: 0.061	inactive: -0.054
HDAC4 (UniProt P56524)	inactive: 0.027	inactive: 0.03	inactive: 0.036	inactive: -0.054	inactive: 0.074
HBZ (UniProt P02008)	inactive: -0.026	inactive: -0.027	inactive: 0.025	inactive: 0.01	inactive: 0.039
GUF1 (UniProt Q8N442)	inactive: 0.088	inactive: -0.071	inactive: -0.374	inactive: -0.004	inactive: 0.009
H2AFY (UniProt O75367)	inactive: -0.035	inactive: 0.045	inactive: 0.026	active: 0.296	inactive: -0.045
HDLBP, A0A024R4E5	inactive: -0.024	inactive: -0.013	inactive: 0.017	inactive: -0.018	inactive: 0.008
HADHB (UniProt P55084)	inactive: 0.053	inactive: 0.021	inactive: 0.105	inactive: 0.167	inactive: -0.048
HCLS1 (UniProt P14317)	inactive: 0.015	inactive: 0.005	inactive: -0.027	inactive: 0.009	inactive: -0.006
GTPBP4 (UniProt Q9BZE4)	inactive: 0.019	inactive: -0.013	inactive: -0.004	inactive: 0.02	inactive: -0.027
GRWD1 (UniProt Q9BQ67)	inactive: 0.056	inactive: -0.007	inactive: -0.004	inactive: -0.015	inactive: -0.031
GTF3C1 (UniProt Q12789)	inactive: -0.048	inactive: 0.044	inactive: 0.012	inactive: -0.003	inactive: -0.005
GYG1 isoform 2 (UniProt P46976)	inactive: 0.067	inactive: 0.005	inactive: 0.043	inactive: -0.021	inactive: 0.01
GYPA (UniProt P02724)	inactive: 0.071	inactive: -0.055	inactive: -0.002	inactive: 0.138	inactive: 0.236
GSR (UniProt P00390)	inactive: -0.01	inactive: -0.025	inactive: -0.026	inactive: 0.009	inactive: 0.001
HADH isoform 2 (UniProt Q16836)	inactive: 0.012	inactive: 0.004	inactive: -0.047	inactive: 0.013	inactive: 0.086
GRAP2 (UniProt O75791)	inactive: -0.006	inactive: 0.06	inactive: 0.003	inactive: 0.017	inactive: 0.123
GSTM2 (UniProt P28161)	inactive: -0.007	inactive: 0.03	inactive: -0.048	inactive: -0.037	inactive: 0.051
GSKIP (UniProt Q9P0R6)	inactive: -0.043	inactive: -0.021	inactive: 0.005	inactive: 0.031	inactive: -0.018
GTF2H4 (UniProt Q92759)	inactive: -0.08	inactive: 0.044	inactive: 0.039	inactive: 0.015	inactive: 0.02
GSTM3 (UniProt P21266)	inactive: -0.102	inactive: -0.026	inactive: -0.014	inactive: 0.046	inactive: 0.052
GSTO1 (UniProt P78417)	inactive: 0.002	inactive: 0.006	inactive: -0.042	inactive: 0.029	inactive: 0.022
HDAC5 isoform 3 (UniProt Q9UQL6)	inactive: 0.037	inactive: 0.011	inactive: -0.028	inactive: -0.039	inactive: 0.01
HARS (UniProt P12081)	inactive: 0.025	inactive: 0.006	inactive: 0.001	inactive: 0.008	inactive: 0.002

Target	log2 fold change [1]	log2 fold change [2]	log2 fold change [3]	log2 fold change [4]	log2 fold change [5]
GSTCD (UniProt Q8NEC7)	inactive: -0.048	inactive: -0.048	inactive: -0.076	inactive: -0.055	inactive: 0.007
GTPBP1 (UniProt O00178)	inactive: 0.036	inactive: 0.048	inactive: 0.002	inactive: 0.011	inactive: -0.022
GSR isoform 5 (UniProt P00390)	inactive: -0.015	inactive: 0.021	inactive: 0.025	inactive: -0.14	inactive: -0.453
GTF2E2 (UniProt P29084)	inactive: 0.019	inactive: -0.013	inactive: 0.026	inactive: 0.05	inactive: 0.001
GSTK1 (UniProt Q9Y2Q3)	inactive: 0.046	inactive: -0.03	inactive: 0.028	inactive: 0.014	inactive: 0.023
GULP1 (UniProt Q9UBP9)	inactive: -0.003	inactive: -0.138	inactive: 0.057	inactive: -0.017	inactive: 0.028
HEATR5A (UniProt Q86XA9)	inactive: 0.025	inactive: -0.006	inactive: 0.072	inactive: -0.025	inactive: 0.038
GTF3C3 (UniProt Q9Y5Q9)	inactive: -0.018	inactive: -0.019	inactive: 0.03	inactive: -0.052	inactive: 0.032
HADHA (UniProt P40939)	inactive: 0.065	inactive: -0.006	inactive: 0.102	inactive: 0.117	inactive: -0.008
HACD3 (UniProt Q9P035)	inactive: -0.09	inactive: 0.046	inactive: -0.005	inactive: -0.07	inactive: 0.017
HAX1 (UniProt O00165)	inactive: -0.063	inactive: -0.029	inactive: 0.026	inactive: 0.033	inactive: 0.017
HDAC7 isoform 5 (UniProt Q8WUI4)	inactive: 0.017	inactive: -0.003	inactive: 0.02	inactive: -0.015	inactive: 0.029
HDHD3 (UniProt Q9BSH5)	inactive: -0.055	inactive: -0.057	inactive: -0.004	inactive: -0.013	inactive: 0.025
HCCS (UniProt P53701)	inactive: 0.011	inactive: -0.005	inactive: -0.01	inactive: -0.006	inactive: -0.053
HDAC3 (UniProt O15379)	inactive: -0.035	inactive: 0.009	inactive: 0.006	inactive: 0.044	inactive: 0.014
HAUS7 isoform 2 (UniProt Q99871)	inactive: 0.163	inactive: 0.036	inactive: 0.019	inactive: 0.069	inactive: 0.032
HCFC1 isoform 4 (UniProt P51610)	inactive: 0.014	inactive: -0.001	inactive: -0.006	inactive: -0.001	inactive: 0
GUSB (UniProt P08236)	inactive: 0.035	inactive: 0.022	inactive: 0.016	inactive: -0.051	inactive: -0.313
HBA1 (UniProt P69905)	inactive: -0.046	inactive: -0.019	inactive: 0.009	inactive: -0.016	inactive: 0.113
HAUS2 (UniProt Q9NVX0)	inactive: -0.186	inactive: 0.148	inactive: 0.077	inactive: 0.016	inactive: 0.176
GSTM4 (UniProt Q03013)	inactive: -0.04	inactive: -0.053	inactive: 0.03	inactive: 0.09	inactive: -0.016
HDHD2 (UniProt Q9H0R4)	inactive: 0.065	inactive: -0.007	inactive: 0.014	inactive: 0.011	inactive: 0.014
GTF3C2 (UniProt Q8WUA4)	inactive: -0.002	inactive: 0.039	inactive: 0.004	inactive: 0.046	inactive: -0.069
HAT1 (UniProt O14929)	inactive: 0.066	inactive: -0.02	inactive: 0.008	inactive: -0.016	inactive: -0.042
GUK1 isoform 2 (UniProt Q16774)	inactive: -0.028	inactive: 0.008	inactive: 0.018	inactive: -0.015	inactive: -0.085
HBG1 (UniProt P69891)	inactive: 0.005	inactive: -0.064	inactive: -0.013	inactive: -0.006	inactive: 0.035

Record cards (already shown). Order of values: log2 fold change [1]	log2 fold change [2]	log2 fold change [3]	log2 fold change [4]	log2 fold change [5]
GSTM3 (UniProt P21266) is listed as inactive: -0.102	inactive: -0.026	inactive: -0.014	inactive: 0.046	inactive: 0.052
HDHD3 (UniProt Q9BSH5) is listed as inactive: -0.055	inactive: -0.057	inactive: -0.004	inactive: -0.013	inactive: 0.025
